This passage reports binding results from PMC8356473.

These are yes or no findings as the source states them, for the method shown. Binding seen in cells or lysates may run through a third protein. These calls come from enrichment with a bait or labelling near it, and not all partners need be listed. Sequences can lack the tags named with a protein.

The target of the assay is T1, FLAG-SH3BGRL3 (SH3 Domain Binding Glutamate Rich Protein Like 3), expressed in SKBR3 cells (human) (UniProt Q9H299).
T1 sequence: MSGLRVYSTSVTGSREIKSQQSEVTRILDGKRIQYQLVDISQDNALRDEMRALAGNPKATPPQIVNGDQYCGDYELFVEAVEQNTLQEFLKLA
Put plainly: affinity purification with mass spectrometry; lysates of SKBR3 cells transfected with FLAG-SH3BGRL3 or empty vector on anti-FLAG-coupled resin; eluted proteins on SDS-PAGE; three bands absent from the control cut and identified by nanoLC-ESI-LIT-MS/MS.

B1: adseverin (also known as scinderin), endogenous in SKBR3 cells (protein, UniProt Q9Y6U3 1-715)
chain: MARELYHEEFARAGKQAGLQVWRIEKLELVPVPQSAHGDFYVGDAYLVLHTAKTSRGFTYHLHFWLGKECSQDESTAAAIFTVQMDDYLGGKPVQNRELQGYESNDFVSYFKGGLKYKAGGVASGLNHVLTNDLTAKRLLHVKGRRVVRATEVPLSWDSFNKGDCFIIDLGTEIYQWCGSSCNKYERLKANQVATGIRYNERKGRSELIVVEEGSEPSELIKVLGEKPELPDGGDDDDIIADISNRKMAKLYMVSDASGSMRVTVVAEENPFSMAMLLSEECFILDHGAAKQIFVWKGKDANPQERKAAMKTAEEFLQQMNYSKNTQIQVLPEGGETPIFKQFFKDWRDKDQSDGFGKVYVTEKVAQIKQIPFDASKLHSSPQMAAQHNMVDDGSGKVEIWRVENNGRIQVDQNSYGEFYGGDCYIILYTYPRGQIIYTWQGANATRDELTTSAFLTVQLDRSLGGQAVQIRVSQGKEPVHLLSLFKDKPLIIYKNGTSKKGGQAPAPPTRLFQVRRNLASITRIVEVDVDANSLNSNDVFVLKLPQNSGYIWVGKGASQEEEKGAEYVASVLKCKTLRIQEGEEPEEFWNSLGGKKDYQTSPLLETQAEDHPPRLYGCSNKTGRFVIEEIPGEFTQDDLAEDDVMLLDAWEQIFIWIGKDANEVEKKESLKSAKMYLETDPSGRDKRTPIVIIKQGHEPPTFTGWFLGWDSSKW
With B1, the binding result is recorded as “binds”.
